Test results: paper PMC4731217, “Mutations in Mtr4 Structural Domains Reveal Their Important Role in Regulating tRNAiMet Turnover in Saccharomyces cerevisiae and Mtr4p Enzymatic Activities In Vitro”
Substitutions are numbered along the chain they refer to. Construct, isoform or probe ends are uncertain for at least one entry. For part of these data: A weaker result is weaker than the reference pair of the same experiment. Protein sequences can lack the tags named with them. For part of these data: At least one verdict was read from the data and is not stated in words by the source.

Legend:
Assay in all cases: EMSA
[1] = biological target: T1, Mtr4p wild type (Saccharomyces cerevisiae) (UniProt P47047); conditions: no ATP or Mg2+ listed, 1 mM EDTA; EMSA: 0.5 nM RNA, 10 mM Tris pH 7.5, 1 mM EDTA, 100 mM KCl, 0.1 mM DTT, 5% glycerol, 1% NP40, on ice 30 min; 5% native PAGE at 4 C; recombinant protein; protein details: His (His60 Ni purification); label: 5' 32P on R4 (top strand)
T1 sequence (looked up, limits assumed): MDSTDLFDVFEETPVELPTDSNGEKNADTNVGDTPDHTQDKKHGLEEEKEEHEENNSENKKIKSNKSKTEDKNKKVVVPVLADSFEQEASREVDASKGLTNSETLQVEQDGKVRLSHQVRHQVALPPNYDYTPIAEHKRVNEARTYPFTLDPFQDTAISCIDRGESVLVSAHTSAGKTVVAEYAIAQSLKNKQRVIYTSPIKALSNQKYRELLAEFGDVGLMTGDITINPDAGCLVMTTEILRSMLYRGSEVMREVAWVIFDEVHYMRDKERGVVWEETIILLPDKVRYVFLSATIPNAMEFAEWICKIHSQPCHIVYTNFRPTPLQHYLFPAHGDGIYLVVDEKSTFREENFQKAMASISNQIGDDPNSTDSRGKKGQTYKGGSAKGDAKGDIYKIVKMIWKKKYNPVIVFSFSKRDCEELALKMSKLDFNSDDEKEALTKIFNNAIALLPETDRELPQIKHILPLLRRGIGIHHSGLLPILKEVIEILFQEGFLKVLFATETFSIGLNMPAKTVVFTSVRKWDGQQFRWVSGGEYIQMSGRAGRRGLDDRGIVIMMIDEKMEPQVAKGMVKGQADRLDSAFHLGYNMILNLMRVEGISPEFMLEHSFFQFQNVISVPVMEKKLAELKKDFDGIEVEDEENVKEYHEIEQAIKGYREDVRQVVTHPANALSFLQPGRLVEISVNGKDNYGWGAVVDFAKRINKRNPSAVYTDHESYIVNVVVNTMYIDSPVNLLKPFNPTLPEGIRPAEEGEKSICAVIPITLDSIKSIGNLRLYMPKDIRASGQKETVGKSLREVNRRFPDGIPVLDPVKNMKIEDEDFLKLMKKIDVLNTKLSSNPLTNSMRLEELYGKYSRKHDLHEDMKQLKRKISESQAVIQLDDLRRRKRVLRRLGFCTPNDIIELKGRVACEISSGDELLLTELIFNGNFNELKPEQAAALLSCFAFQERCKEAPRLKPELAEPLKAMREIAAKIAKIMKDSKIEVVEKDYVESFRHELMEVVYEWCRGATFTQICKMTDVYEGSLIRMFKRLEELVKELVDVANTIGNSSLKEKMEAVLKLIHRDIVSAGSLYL

[2] = biological target: T2, Mtr4p-R1030G (Saccharomyces cerevisiae) (UniProt P47047); conditions: no ATP or Mg2+ listed, 1 mM EDTA; EMSA: 0.5 nM RNA, 10 mM Tris pH 7.5, 1 mM EDTA, 100 mM KCl, 0.1 mM DTT, 5% glycerol, 1% NP40, on ice 30 min; 5% native PAGE at 4 C; recombinant protein; protein details: His (His60 Ni purification); label: 5' 32P on R4 (top strand)
T2 sequence (looked up, limits assumed): T1 sequence (looked up, limits assumed) with R1030G

[3] = biological target: T3, Mtr4p-K904N (Saccharomyces cerevisiae) (UniProt P47047); conditions: no ATP or Mg2+ listed, 1 mM EDTA, complex reduced with smearing, free RNA similar to wild type; EMSA: 0.5 nM RNA, 10 mM Tris pH 7.5, 1 mM EDTA, 100 mM KCl, 0.1 mM DTT, 5% glycerol, 1% NP40, on ice 30 min; 5% native PAGE at 4 C; recombinant protein; protein details: His (His60 Ni purification); label: 5' 32P on R4 (top strand)
T3 sequence (looked up, limits assumed): T1 sequence (looked up, limits assumed) with K904N

Sequence: AGCACCGUAAAGACGC / GCGUCUUUACGGUGCUAGCUUA [R1-4 RNA duplex (R4 top / R1 bottom)]
- binding result [1]: binds
- binding result [2]: binds more weakly
- binding result [3]: binds more weakly
